Assay [1] is described as follows: Validation of Assay for Modulators of Lamin A Splicing (AID 1459). The following applies: Lamin A splicing dual RFP/GFP fluorescence reporter, ratio. In short, it runs like this:
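Splicing correction read as GFP (500-530 nm) over DsRed2 (575-640 nm) object intensity after 48 h compound exposure of reporter HeLa S3 clones (600 cells/well, 2% FBS medium); ancitabine and cycloheximide titrations, 0.5% DMSO as vehicle.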

Assay [2] in a line: qHTS Assay for Lipid Storage Modulators (AID 1519). The following applies: Drosophila S3 cells, BODIPY lipid droplet/cell ratio, laser cytometry, cells loaded with oleic acid. Summed up: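 Cells seeded at 5,000 per well were treated with compounds over a concentration series and loaded with oleic acid (400 uM, as added). Lipid droplet fluorescence (488 nm excitation, 500-530 nm channel) was read by laser-scanning cytometry and normalized to 20 uM Triacsin C.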

A short description of assay [3]: qHTS Assay for Modulators of Human Peripheral Myelin Protein 22 (PMP22) Expression/Activity (AID 1967). The following applies: Cell-based PMP22 reporter, dual-color luciferase ratio. Summed up:
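Readout is the corrected green/red luminescence ratio after 24 h compound exposure, normalised to untreated cells (0%). Engineered MSC80 mouse Schwann cells express green luciferase from the mouse Pmp22 promoter and red luciferase from EF-alpha as internal control.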

The nature of assay [4]: A High-Content qHTS Against Drug Library for the Identification of Small Molecules that Inhibit DYT1 Early Onset Primary Dystonia-Associated Cell Pathology (AID 1645839). The following applies: HEK293 Flp-In EGFP-delE TorsinA, punctate imaging, 48 h; measured here: cell count cytotoxicity. Summed up:
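High-content imaging quantified EGFP-TorsinA mislocalization in HEK293-derived cells inducibly expressing DYT1 mutant torsinA, after 48 h exposure to compound given together with tetracycline induction. Cell count served as a toxicity channel alongside %pathology.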

A short description of assay [5]: qHTS Assay for Inhibitors of PDE-IV (AID 607). The following applies: HEK293 ACTOne CNG channel cells, membrane potential fluorescence; measured here: parental cell counter-screen. Summed up: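 HEK293 ACTOne cells with CNG channel (1000/well), endogenous PDE4; membrane potential dye, compounds up to 22.9 uM final. Fluorescence Ex 535/Em 590; RO 20-1724 (100 uM final) as reference.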

A short description of assay [6]: qHTS Validation Assay to Find Inhibitors of Chronic Active B-Cell Receptor Signaling (AID 485345). The following applies: ABC-DLBCL cells, chronic BCR signaling reporter; measured here: CBR control luciferase (viability counter). Summed up:
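Read-out: ratio of filter-corrected green (IkappaBalpha fusion) to red (native) luciferase signal in doxycycline-induced TMD8 cells after 4 h at 37C. Titration spanned 46 uM–3 nM; Data were normalised to basal cells and 10 uM MG-132 wells.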

Assay [7] in a line: qHTS assay for small molecule antagonists of peroxisome proliferator-activated receptor delta signaling (AID 588535).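 Also: cells co-treated with a PPAR-delta agonist as stimulator during compound exposure.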 The following applies: HEK293T PPARd-UAS-bla, beta-lactamase FRET ratio, 18 h; 460 nm channel. In short, it runs like this:
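Titrations were run on PPAR-delta-UAS-bla HEK293T cells in charcoal/dextran-stripped serum, incubated 18 h at 37 C. CCF4 fluorescence (460/530 nm) after 2 h RT; Hill equation yields IC50 and maximal response.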

Assay [8] can be described thus: qHTS assay for small molecule antagonists of peroxisome proliferator-activated receptor gamma signaling (AID 588537). The following applies: HEK293 PPARg-UAS-bla, beta-lactamase ratio, antagonist mode; measured here: W460 blue channel. Summed up: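 Antagonist-mode β-lactamase reporter screen run as a titration series. HEK293 PPARγ-UAS-bla cells are stimulated with rosiglitazone (50 nM final) for 16 h, then CCF4 is read at 460/530 nm. Data are scaled between DMSO and rosiglitazone and fitted to the Hill equation.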

A short description of assay [9]: qHTS assay for small molecule agonists of retinoid X receptor alpha signaling (AID 588544). The following applies: HEK293T RXRa-UAS-bla, beta-lactamase reporter, 18 h; 530 nm emission.
Assay [10] in a line: S16 Schwann cell PMP22 intronic element beta-lactamase assay (AID 624044). The following applies: S16 rat Schwann cells, PMP22 element beta-lactamase FRET, 24 h; measured here: 460 nm blue channel. Summed up:
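Beta-lactamase reporter under a PMP22 intronic regulatory element in stable S16 rat Schwann cells; 24 h compound exposure. 460 nm blue signal normalized between DMSO (0%) and potassium clavulanate, with 535 nm FRET tracking viability; curves classed by r2 and response.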

Assay [11] is described as follows: qHTS drug screen for cell cycle checkpoint inhibitors in PARPi-resistant BRCA-mutant ovarian cancer cell lines. (AID 1963452). The following applies: PEO1/OlaR viability, CellTiter-Glo luminescence, 96 h. In short, it runs like this: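 PEO1, PEO4 and PEO1/OlaR ovarian cancer cells, 600 per well, exposed 96 h at 37C to a dilution series. Viability read by CellTiter-Glo luminescence, normalized to DMSO and empty wells; activity summarized as Z-AUC.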

The nature of assay [12]: qHTS for identification of novel therapeutic agents for treatment of microphthalmiaassociated transcription factor (MiT) renal cell carcinoma (RCC) (AID 1963991). The following applies: CellTiter-Glo, 48 h; for z-score: stronger effect = lower value. In short, it runs like this:
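Three TFE3-fusion RCC lines (UOK109, UOK124, UOK145), 500 cells/well in complete medium, were treated with MIPE 4.0 compounds for 48 hours at 37 C. Viability was by CellTiter-Glo luminescence, normalized to DMSO (100%) and empty wells (0%); curves fitted over 11 concentrations.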

The mark [13] stands for this setting: measured here: cell count channel max response.
Setting [14] is: measured here: cell number channel AC50.
Where [15] appears, read: measured here: lipid (BODIPY) channel AC50.
Where [16] appears, read: measured here: lipid channel max response.
The mark [17] stands for this setting: measured here: green reporter channel AC50, mouse Pmp22 promoter in mouse Schwann cells.
[18] abbreviates: measured here: red reporter channel AC50, EF-alpha promoter control reporter in MSC80 mouse Schwann cells.

Each structure is given as a SMILES string. Several values for one entry are separate records, joined by “and”; a condition that tells them apart may be missing. Equal entries are not always repeated. This is one part of the list. Further columns of the screen follow, without active or inactive calls. For part of these data: Compounds called inactive in the main read-out are mostly missing here. For part of these data: Words in brackets tell the shape of the fitted curve; partial curves, single points and poor fits give uncertain potencies.

Regarding `Fc1ccc(C(c2ccc(F)cc2)N2CCN(C/C=C/c3ccccc3)CC2)cc1`, the AC50 was 25100 nM [falling, single point] in [1] (measured here: GFP channel); 25100 nM [falling, single point] in assay [1] (measured here: RFP channel); 11.2 µM [falling, full curve, poor fit] in assay [2] (setting [14]); 22.4 µM [falling, full curve, poor fit] in assay [2] (setting [15]); 47800 nM [falling, partial curve] in assay [3] (setting [17]); 53600 nM [falling, partial curve] in assay [3] (setting [18]). Besides, the AC50 in assay [4] is 10000 nM [falling, partial curve, poor fit]. For the same compound, the max response in assay [2] (setting [13]) is -57.4%; in [2] (setting [16]) it was -73.9%.

`CN(C)CCCO[C@H]1C([C@H](O)CO)O[C@@H]2OC(C)(C)O[C@@H]21` (stereo partly specified): the AC50 in assay [1] (measured here: GFP channel) was 2000 nM [falling, partial curve].

As for `CC(C)(C)NCC(O)COc1cccc2[nH]c(=O)[nH]c12` (stereo unspecified), the AC50 in assay [1] (measured here: GFP channel) was 35500 nM [falling, single point]; in assay [1] (measured here: RFP channel), 35500 nM [falling, single point]. Further, the figures for the max response in assay [2] (setting [13]) and in assay [2] (setting [16]) were 50.5% and 52.9%, respectively.

As to `O=C(Nc1ccc([N+](=O)[O-])cc1Cl)c1cc(Cl)ccc1O`, the AC50 in [5] is 631 nM [rising, full curve] and 1 µM [rising, partial curve]; in assay [1] (measured here: GFP channel), 1580 nM [rising, full curve]; in assay [1] (measured here: RFP channel) it was 1580 nM [rising, full curve]; in assay [2] (setting [14]) it was 7.08 µM [falling, full curve, poor fit] and 3.16 µM [falling, single point] and 14.1 µM [falling, partial curve, poor fit]; in assay [2] (setting [15]), 7.08 µM [falling, full curve] and 35.5 µM [falling, single point] and 7.94 µM [falling, full curve, poor fit]; in assay [3] (setting [17]), 1900 nM [falling, full curve]. The AC50 in assay [3] (setting [18]) was 379 nM [falling, full curve]; in assay [6], 366 nM [falling, full curve]; in assay [8], 8910 nM [falling, full curve, poor fit]; in assay [10], 1120 nM [falling, full curve]; in assay [4], 708 nM [falling, full curve, poor fit]; in assay [11] (measured here: PEO1 parental viability) it was 347 nM [falling, full curve]. Further, the AC50 in assay [11] (measured here: PEO4 viability) was 389 nM [falling, full curve]; in assay [12] (TFE3-RCC viability, measured here: UOK124 cell viability), 1480 nM [falling, full curve]; in [12] (TFE3-RCC viability, measured here: UOK145 cell viability) it was 2350 nM [falling, full curve]. The max response in assay [2] (setting [13]) was -49% and -31.2% and 6.82%; in [2] (setting [16]), -106% and -103% and 11.4%; in [7] it was -36.8%; in assay [9], 11.2%. The z-score was -1.16 in [12] (TFE3-RCC UOK109 viability, measured here: UOK109 Z-AUC); -0.589 in assay [12] (TFE3-RCC viability, measured here: UOK124 Z-AUC); -1.03 in [12] (TFE3-RCC viability, measured here: UOK145 Z-AUC).

Values taken from PubChem BioAssay (NCATS).
